Experimental findings from paper PMC10117145 are described below.

The chains behind the UniProt entries cited, without tags or fusion partners.
UniProt P9WHY2: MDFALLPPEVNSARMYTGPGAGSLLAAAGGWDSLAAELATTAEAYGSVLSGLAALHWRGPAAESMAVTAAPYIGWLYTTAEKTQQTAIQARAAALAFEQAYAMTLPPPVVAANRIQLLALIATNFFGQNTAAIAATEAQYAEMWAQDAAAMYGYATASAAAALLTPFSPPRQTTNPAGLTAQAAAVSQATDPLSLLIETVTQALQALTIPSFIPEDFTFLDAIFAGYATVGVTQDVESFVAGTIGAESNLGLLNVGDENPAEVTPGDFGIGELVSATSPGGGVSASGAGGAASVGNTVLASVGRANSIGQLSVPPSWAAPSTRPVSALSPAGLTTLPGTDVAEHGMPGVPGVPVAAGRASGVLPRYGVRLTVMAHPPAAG

The target of assay [1] is Recombinant PPE51_(6His) refolded in 0.1% DDM (Mycobacterium tuberculosis) (UniProt P9WHY2). The experiment in a line: SEC; both purified. A general note: In gel filtration, larger molecules generally elute earlier.
Assay [2] has as its target Recombinant PPE64_(6His) refolded in 0.1% DDM (Mycobacterium tuberculosis) (UniProt Q6MWW0). The experiment in a line: SEC; both purified.

Results are given in words; binding and its absence hold for the method and conditions named. Some binding calls cover weakened binding; strength is not graded here. For some assays here: Where a sequence is shown, tags or fusion partners need not be part of it.

Regarding “Recombinant PPE51_(6His) refolded in 0.1% DDM (from UniProt P9WHY2 1-380)”, the binding entry in assay [1] was “binds”.

B1: Recombinant PPE64_(6His) refolded in 0.1% DDM (protein, UniProt Q6MWW0 1-552)
chain: MAHFSVLPPEINSLRMYLGAGSAPMLQAAAAWDGLAAELGTAASSFSSVTTGLTGQAWQGPASAAMAAAAAPYAGFLTTASAQAQLAAGQAKAVASVFEAAKAAIVPPAAVAANREAFLALIRSNWLGLNAPWIAAVESLYEEYWAADVAAMTGYHAGASQAAAQLPLPAGLQQFLNTLPNLGIGNQGNANLGGGNTGSGNIGNGNKGSSNLGGGNIGNNNIGSGNRGSDNFGAGNVGTGNIGFGNQGPIDVNLLATPGQNNVGLGNIGNNNMGFGNTGDANTGGGNTGNGNIGGGNTGNNNFGFGNTGNNNIGIGLTGNNQMGINLAGLLNSGSGNIGIGNSGTNNIGLFNSGSGNIGVFNTGANTLVPGDLNNLGVGNSGNANIGFGNAGVLNTGFGNASILNTGLGNAGELNTGFGNAGFVNTGFDNSGNVNTGNGNSGNINTGSWNAGNVNTGFGIITDSGLTNSGFGNTGTDVSGFFNTPTGPLAVDVSGFFNTASGGTVINGQTSGIGNIGVPGTLFGSVRSGLNTGLFNMGTAISGLFNLRQLLG
Regarding B1, the binding entry in assay [2] is listed as “binds”.
